Results are given in words; binding and its absence hold for the method and conditions named. Some results given as binding are weak or reduced against the parent protein; the word gives no strength. Sequences can lack the tags named with a protein.

Chains of the proteins cited; added tags and fusions are not shown. Residues count along the entry.
UniProt O43493, residues 403-437: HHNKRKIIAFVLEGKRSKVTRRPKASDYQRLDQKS

For the experiment, the target named is cytoplasmic domain of human TGN38 fused to the GAL4 DNA-binding domain (human) (UniProt O43493). The experiment can be described thus: two-hybrid.

B1: µ3 subunit of AP-3 fused to the activation domain of GAL4 (protein, UniProt P53676 1-418)
chain: MIHSLFLINCSGDIFLEKHWKSVVSQSVCDYFFEAQEKAADVENVPTVISTPHHYLISIYRDKLFFVSVIQTEVPPLFVIEFLHRVADTFQDYFGECSEAAIKDNVVIVYELLEEMLDNGFPLATESNILKELIKPPTILRSVVNSITGSSNVGDTLPTGQLSNIPWRRAGVKYTNNEAYFDVVEEIDAIIDKSGSTVFAEIQGVIDACIKLSGMPDLSLSFMNPRLLDDVSFHPCIRFKRWESERVLSFIPPDGNFRLISYRVSSQNLVAIPVYVKHNISFKENSSCGRFDITIGPKQNMGKTIEGITVTVHMPKVVLNMNLTPTQGSYTFDPVTKVLAWDVGKITPQKLPSLKGLVNLQSGAPKPEENPNLNIQFKIQQLAISGLKVNRLDMYGEKYKPFKGVKYITKAGKFQVRT
B1: the binding result is listed as “binds”.

Source of the values: paper doi:10.1101/2020.01.22.915017.
